In the supplement of paper PMC6411743:
± gives the standard deviation of the averaged measurements. This is one part of the list.

By UniProt entry, the sequences of proteins in these tests, tags left out. Where a name states a change or a piece, a line headed by the entry shows the natural chain unless it says otherwise.
UniProt Q8ND04: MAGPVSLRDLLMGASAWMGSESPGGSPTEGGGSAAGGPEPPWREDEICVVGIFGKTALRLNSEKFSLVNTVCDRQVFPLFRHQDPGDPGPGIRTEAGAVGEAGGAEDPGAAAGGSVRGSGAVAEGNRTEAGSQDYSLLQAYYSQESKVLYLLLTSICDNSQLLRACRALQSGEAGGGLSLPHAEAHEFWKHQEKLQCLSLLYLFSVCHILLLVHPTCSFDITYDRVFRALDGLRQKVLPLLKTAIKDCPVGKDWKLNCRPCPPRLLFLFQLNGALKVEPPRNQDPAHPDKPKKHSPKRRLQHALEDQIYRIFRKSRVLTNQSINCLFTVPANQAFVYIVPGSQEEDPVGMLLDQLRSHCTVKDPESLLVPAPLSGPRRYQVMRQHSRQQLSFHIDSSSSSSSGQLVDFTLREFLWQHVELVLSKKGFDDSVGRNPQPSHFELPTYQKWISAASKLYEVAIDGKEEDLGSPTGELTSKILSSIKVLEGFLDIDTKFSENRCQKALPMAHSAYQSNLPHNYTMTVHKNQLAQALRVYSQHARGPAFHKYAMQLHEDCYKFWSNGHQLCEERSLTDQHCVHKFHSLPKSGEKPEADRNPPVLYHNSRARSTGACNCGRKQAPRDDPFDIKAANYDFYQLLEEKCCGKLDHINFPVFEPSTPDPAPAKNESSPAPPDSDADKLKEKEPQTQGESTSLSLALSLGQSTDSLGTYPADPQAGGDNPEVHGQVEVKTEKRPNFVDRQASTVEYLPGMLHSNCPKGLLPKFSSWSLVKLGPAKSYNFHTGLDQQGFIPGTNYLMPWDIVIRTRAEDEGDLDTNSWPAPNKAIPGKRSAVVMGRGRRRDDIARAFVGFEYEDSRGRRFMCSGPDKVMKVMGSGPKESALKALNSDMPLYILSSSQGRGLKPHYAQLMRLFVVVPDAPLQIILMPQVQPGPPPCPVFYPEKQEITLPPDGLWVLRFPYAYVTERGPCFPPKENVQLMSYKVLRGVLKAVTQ
UniProt Q8N122, whole entry: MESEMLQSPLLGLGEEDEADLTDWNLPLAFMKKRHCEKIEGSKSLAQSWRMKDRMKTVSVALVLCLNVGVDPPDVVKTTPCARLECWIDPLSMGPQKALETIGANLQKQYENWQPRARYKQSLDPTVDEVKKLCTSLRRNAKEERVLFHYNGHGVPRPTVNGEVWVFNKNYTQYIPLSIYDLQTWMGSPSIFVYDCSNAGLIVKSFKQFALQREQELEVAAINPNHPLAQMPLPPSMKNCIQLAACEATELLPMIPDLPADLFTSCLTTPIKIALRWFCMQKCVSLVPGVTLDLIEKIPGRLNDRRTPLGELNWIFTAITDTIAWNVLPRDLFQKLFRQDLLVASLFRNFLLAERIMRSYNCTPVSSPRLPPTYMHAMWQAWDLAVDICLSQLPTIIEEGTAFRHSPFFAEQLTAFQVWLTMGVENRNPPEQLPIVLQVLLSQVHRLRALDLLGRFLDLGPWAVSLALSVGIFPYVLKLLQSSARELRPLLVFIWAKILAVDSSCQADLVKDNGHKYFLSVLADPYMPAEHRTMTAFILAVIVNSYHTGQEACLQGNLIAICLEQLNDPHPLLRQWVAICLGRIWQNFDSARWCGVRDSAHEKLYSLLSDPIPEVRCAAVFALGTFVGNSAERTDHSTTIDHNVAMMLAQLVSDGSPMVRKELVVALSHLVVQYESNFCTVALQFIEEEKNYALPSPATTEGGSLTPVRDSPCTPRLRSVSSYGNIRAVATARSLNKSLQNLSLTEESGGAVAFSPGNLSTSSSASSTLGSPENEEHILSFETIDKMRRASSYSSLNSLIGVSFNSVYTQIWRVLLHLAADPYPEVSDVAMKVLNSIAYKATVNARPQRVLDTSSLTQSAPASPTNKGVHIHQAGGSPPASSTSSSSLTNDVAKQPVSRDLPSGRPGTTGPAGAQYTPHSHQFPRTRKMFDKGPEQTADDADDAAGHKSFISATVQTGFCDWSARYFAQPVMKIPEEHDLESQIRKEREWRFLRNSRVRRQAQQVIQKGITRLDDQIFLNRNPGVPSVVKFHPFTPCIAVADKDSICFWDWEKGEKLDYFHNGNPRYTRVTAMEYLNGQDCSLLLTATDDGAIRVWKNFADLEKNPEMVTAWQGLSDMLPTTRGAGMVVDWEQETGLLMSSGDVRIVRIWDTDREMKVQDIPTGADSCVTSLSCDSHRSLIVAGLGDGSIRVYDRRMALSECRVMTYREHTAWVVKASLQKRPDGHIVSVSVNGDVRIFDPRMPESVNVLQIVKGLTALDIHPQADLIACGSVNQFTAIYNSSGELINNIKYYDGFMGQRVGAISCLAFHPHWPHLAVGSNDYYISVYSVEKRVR
UniProt Q8TCT9: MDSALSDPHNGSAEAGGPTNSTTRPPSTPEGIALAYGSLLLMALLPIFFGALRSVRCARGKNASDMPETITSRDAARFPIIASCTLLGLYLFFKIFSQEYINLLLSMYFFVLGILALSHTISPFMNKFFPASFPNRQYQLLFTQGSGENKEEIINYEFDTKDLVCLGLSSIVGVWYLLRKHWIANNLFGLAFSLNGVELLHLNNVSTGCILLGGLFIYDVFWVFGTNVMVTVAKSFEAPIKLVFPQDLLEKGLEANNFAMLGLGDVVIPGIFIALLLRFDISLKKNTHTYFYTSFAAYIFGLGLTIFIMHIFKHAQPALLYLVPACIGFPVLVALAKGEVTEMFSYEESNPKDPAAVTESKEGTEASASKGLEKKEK
UniProt Q8NFI3: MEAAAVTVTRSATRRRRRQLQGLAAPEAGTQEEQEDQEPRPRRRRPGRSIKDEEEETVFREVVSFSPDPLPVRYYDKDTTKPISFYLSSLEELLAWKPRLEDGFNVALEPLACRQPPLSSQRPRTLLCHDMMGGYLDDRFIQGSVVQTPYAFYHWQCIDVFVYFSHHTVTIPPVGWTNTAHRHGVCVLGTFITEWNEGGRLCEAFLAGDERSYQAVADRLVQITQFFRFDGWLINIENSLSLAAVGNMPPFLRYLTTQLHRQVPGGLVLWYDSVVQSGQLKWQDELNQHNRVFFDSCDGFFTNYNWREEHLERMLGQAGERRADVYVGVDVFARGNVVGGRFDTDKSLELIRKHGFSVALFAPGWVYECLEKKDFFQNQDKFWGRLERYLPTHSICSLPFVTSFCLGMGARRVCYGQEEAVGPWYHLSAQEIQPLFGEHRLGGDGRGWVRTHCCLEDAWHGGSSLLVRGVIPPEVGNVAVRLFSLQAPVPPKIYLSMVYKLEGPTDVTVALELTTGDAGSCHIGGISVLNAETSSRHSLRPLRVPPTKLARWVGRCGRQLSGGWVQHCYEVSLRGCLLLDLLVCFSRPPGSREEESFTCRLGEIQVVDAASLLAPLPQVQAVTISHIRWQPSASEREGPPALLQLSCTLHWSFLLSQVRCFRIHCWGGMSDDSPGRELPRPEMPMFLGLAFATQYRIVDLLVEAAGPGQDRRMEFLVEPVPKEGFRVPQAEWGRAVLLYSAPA
UniProt Q8N183: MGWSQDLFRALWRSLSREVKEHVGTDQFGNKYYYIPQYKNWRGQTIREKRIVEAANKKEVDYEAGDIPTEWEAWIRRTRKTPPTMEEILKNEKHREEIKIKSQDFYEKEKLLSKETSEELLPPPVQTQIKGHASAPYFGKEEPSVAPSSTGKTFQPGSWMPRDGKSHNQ
UniProt Q8TEX9: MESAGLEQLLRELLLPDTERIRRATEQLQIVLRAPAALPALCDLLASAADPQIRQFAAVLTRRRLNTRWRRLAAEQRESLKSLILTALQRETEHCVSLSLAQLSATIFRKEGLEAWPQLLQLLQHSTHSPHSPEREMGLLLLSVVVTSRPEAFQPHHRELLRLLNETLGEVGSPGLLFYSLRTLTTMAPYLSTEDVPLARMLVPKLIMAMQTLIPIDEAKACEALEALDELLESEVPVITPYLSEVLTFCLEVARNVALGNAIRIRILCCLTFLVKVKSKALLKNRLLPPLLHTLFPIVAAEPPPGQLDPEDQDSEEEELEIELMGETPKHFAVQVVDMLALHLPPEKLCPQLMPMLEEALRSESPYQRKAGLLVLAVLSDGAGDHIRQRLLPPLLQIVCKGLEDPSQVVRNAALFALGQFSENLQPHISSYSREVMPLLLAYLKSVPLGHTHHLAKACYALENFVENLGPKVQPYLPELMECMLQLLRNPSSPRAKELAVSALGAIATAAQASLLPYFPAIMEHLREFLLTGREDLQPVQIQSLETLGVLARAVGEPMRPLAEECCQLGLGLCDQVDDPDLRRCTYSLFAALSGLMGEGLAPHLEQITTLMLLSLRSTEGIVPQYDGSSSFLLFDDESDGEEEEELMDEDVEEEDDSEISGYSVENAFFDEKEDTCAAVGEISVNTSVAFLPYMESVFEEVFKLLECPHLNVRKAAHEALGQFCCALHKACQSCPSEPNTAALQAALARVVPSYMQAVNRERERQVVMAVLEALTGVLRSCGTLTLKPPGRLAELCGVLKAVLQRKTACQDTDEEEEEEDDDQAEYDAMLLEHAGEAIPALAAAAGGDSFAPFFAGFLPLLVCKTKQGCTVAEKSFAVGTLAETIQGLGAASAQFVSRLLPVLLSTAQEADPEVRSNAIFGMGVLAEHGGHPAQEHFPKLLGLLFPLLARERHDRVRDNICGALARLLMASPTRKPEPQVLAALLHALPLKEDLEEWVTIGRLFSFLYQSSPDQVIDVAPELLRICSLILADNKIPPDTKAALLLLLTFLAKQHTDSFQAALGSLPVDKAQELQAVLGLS
UniProt Q86YP4: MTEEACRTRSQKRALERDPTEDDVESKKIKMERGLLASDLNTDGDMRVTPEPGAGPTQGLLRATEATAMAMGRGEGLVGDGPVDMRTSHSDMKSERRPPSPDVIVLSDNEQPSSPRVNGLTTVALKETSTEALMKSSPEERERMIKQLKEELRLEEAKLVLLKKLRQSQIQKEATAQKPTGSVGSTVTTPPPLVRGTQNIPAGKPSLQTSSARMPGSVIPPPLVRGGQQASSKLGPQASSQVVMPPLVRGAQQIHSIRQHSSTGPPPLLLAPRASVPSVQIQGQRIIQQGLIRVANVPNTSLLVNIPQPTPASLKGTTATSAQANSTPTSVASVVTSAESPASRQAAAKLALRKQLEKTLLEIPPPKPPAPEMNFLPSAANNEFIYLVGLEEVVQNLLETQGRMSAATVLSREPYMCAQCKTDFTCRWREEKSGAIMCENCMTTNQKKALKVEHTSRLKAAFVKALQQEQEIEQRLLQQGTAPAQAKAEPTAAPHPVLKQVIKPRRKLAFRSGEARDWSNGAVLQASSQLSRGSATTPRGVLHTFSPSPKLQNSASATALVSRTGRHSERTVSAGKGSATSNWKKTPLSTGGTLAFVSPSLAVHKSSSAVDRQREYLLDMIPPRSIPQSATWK
UniProt Q86YS6: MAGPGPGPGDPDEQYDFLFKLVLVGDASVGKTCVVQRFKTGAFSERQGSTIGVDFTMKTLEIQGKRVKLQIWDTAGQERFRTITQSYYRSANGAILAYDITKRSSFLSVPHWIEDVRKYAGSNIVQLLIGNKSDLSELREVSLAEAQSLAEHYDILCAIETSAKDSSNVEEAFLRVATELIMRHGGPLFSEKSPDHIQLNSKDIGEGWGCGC
UniProt Q8N5K1: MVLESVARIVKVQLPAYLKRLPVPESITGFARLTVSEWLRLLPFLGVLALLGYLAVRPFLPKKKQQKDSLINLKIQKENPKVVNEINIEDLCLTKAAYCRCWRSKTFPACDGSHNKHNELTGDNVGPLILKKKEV
UniProt Q8NBN3: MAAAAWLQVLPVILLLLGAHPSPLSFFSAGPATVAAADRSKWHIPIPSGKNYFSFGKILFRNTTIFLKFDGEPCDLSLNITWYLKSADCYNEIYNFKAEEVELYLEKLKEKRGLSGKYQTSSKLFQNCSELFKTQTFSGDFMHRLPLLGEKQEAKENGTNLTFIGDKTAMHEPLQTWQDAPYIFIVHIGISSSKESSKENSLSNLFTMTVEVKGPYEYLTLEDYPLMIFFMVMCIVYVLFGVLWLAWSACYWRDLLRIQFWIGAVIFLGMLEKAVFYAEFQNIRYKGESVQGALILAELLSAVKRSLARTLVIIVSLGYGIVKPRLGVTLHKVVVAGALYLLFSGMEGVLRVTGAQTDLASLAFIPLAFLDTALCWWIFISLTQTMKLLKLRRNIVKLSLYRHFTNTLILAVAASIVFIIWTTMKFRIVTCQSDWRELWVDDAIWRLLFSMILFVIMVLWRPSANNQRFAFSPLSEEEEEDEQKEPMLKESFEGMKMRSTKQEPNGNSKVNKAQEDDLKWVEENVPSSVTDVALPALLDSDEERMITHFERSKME
UniProt Q8IY95: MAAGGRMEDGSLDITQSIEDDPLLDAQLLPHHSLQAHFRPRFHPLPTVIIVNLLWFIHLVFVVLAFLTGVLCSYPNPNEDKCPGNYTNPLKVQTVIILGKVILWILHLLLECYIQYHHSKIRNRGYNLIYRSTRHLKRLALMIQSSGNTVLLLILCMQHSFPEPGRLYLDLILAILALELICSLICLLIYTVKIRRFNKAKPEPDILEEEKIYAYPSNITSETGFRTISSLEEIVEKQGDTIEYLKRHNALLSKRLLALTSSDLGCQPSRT

compound: Nc1nc2c(ncn2[C@@H]2O[C@H](COP(=O)(O)OP(=O)(O)OP(=O)(O)O)[C@@H](O)[C@H]2O)c(=O)[nH]1 [guanosine triphosphate]; test: NP40-soluble protein abundance relative to vehicle (solubility fold change) (ratio); higher = more soluble protein in presence of GTP; settings: concentration: 0.1mM
Summary of the method: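 Values are fold changes against the detergent-processed vehicle, based on vsn-normalised intensities. Jurkat crude lysate was treated at eight concentrations from 0.1 to 10 mM (10 min at room temperature, then 3 min at 37 °C), solubilised with 0.8% NP40 and benzonase, ultracentrifuged and analysed by TMT-labelled LC-MS/MS over three independent experiments.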

Target | NP40-soluble protein abundance
UniProt Q86Y56 | 1.06 ± 0.022
UniProt Q86X53 and related entries | 0.957 ± 0.064
UniProt Q8ND04 and related entries | 1.11 ± 0.083
GALNT12 (UniProt Q8IXK2) | 1.08 ± 0.075
UniProt Q8TDZ2 and related entries | 1.01 ± 0.056
UniProt Q8N122 and related entries | 1.04 ± 0.041
UniProt Q8N5U6 and related entries | 1.02 ± 0.12
UniProt Q8TCT9 and related entries | 0.971 ± 0.029
UniProt Q8N766 and related entries | 1.01 ± 0.055
UniProt Q8TD16 and related entries | 0.991 ± 0.02
UniProt Q8NFI3 and related entries | 0.997 ± 0.05
TTC5 (UniProt Q8N0Z6) | 0.942 ± 0.096
NDUFAF2 (UniProt Q8N183) | 0.954 ± 0.023
UniProt Q8TEX9 and related entries | 1.06 ± 0.027
DCUN1D3 (UniProt Q8IWE4) | 0.968 ± 0.12
UniProt Q8NHU6 and related entries | 1.09 ± 0.069
UniProt Q8IXI2 and related entries | 1.05 ± 0.021
FTSJ3 (UniProt Q8IY81) | 0.979 ± 0.012

Target | NP40-soluble protein abundance
PNPT1 (UniProt Q8TCS8) | 1.07 ± 0.023
ZADH2 (UniProt Q8N4Q0) | 0.997 ± 0.043
UniProt Q86YP4 and related entries | 0.982 ± 0.041
NUP43 (UniProt Q8NFH3) | 1.02 ± 0.058
RAB43 (UniProt Q86YS6) | 1.03 ± 0.075
UniProt Q8IUX7 | 1.09 ± 0.12
INTS1 (UniProt Q8N201) | 1.16 ± 0.11
CISD2 (UniProt Q8N5K1) | 0.944 ± 0.084
RYBP (UniProt Q8N488) | 0.931 ± 0.16
UniProt Q8N3X1 and related entries | 1.05 ± 0.043
UniProt Q8NBN3 and related entries | 0.951 ± 0.097
ARL6IP6 (UniProt Q8N6S5) | 0.994 ± 0.05
UniProt Q8IY63 and related entries | 0.94 ± 0.081
ANKRD13A (UniProt Q8IZ07) | 1.07 ± 0.02
UniProt Q8NHV4 and related entries | 0.976 ± 0.041
UniProt Q8IY95 and related entries | 0.943 ± 0.042
UniProt Q8IWV8 and related entries | 1.1 ± 0.14
UniProt Q8NCW5 | 0.907 ± 0.084

same assay, conditions: concentration: 0.5mM

Target | NP40-soluble protein abundance
UniProt Q86Y56 | 1.04 ± 0.022
UniProt Q86X53 and related entries | 0.89 ± 0.066
UniProt Q8ND04 and related entries | 1.15 ± 0.04
GALNT12 (UniProt Q8IXK2) | 1.05 ± 0.092
UniProt Q8TDZ2 and related entries | 0.965 ± 0.069
UniProt Q8N122 and related entries | 1.05 ± 0.071
UniProt Q8N5U6 and related entries | 1.04 ± 0.099
UniProt Q8TCT9 and related entries | 0.9269 ± 0.0086
UniProt Q8N766 and related entries | 1.03 ± 0.1
UniProt Q8TD16 and related entries | 0.94 ± 0.041
UniProt Q8NFI3 and related entries | 1.07 ± 0.041
TTC5 (UniProt Q8N0Z6) | 0.991 ± 0.054
NDUFAF2 (UniProt Q8N183) | 0.833 ± 0.013
UniProt Q8TEX9 and related entries | 1.02 ± 0.061
DCUN1D3 (UniProt Q8IWE4) | 0.987 ± 0.099
UniProt Q8NHU6 and related entries | 1.08 ± 0.062
UniProt Q8IXI2 and related entries | 0.969 ± 0.023
FTSJ3 (UniProt Q8IY81) | 0.97 ± 0.039

Target | NP40-soluble protein abundance
PNPT1 (UniProt Q8TCS8) | 1.02 ± 0.05
ZADH2 (UniProt Q8N4Q0) | 1.01 ± 0.091
UniProt Q86YP4 and related entries | 1.01 ± 0.043
NUP43 (UniProt Q8NFH3) | 1.0858 ± 0.0002
RAB43 (UniProt Q86YS6) | 0.995 ± 0.059
UniProt Q8IUX7 | 1.14 ± 0.15
INTS1 (UniProt Q8N201) | 1.22 ± 0.14
CISD2 (UniProt Q8N5K1) | 0.917 ± 0.059
RYBP (UniProt Q8N488) | 0.909 ± 0.13
UniProt Q8N3X1 and related entries | 1.01 ± 0.076
UniProt Q8NBN3 and related entries | 0.941 ± 0.12
ARL6IP6 (UniProt Q8N6S5) | 1.06 ± 0.14
UniProt Q8IY63 and related entries | 0.991 ± 0.041
ANKRD13A (UniProt Q8IZ07) | 1.06 ± 0.01
UniProt Q8NHV4 and related entries | 1.03 ± 0.066
UniProt Q8IY95 and related entries | 0.994 ± 0.022
UniProt Q8IWV8 and related entries | 1.08 ± 0.12
UniProt Q8NCW5 | 0.869 ± 0.041

same assay, conditions: concentration: 1mM

Target | NP40-soluble protein abundance
UniProt Q86Y56 | 0.985 ± 0.055
UniProt Q86X53 and related entries | 0.98 ± 0.062
UniProt Q8ND04 and related entries | 1.12 ± 0.062
GALNT12 (UniProt Q8IXK2) | 0.982 ± 0.086
UniProt Q8TDZ2 and related entries | 0.946 ± 0.021
UniProt Q8N122 and related entries | 1.02 ± 0.082
UniProt Q8N5U6 and related entries | 1.02 ± 0.065
UniProt Q8TCT9 and related entries | 0.914 ± 0.017
UniProt Q8N766 and related entries | 0.938 ± 0.046
UniProt Q8TD16 and related entries | 0.987 ± 0.029
UniProt Q8NFI3 and related entries | 0.981 ± 0.063
TTC5 (UniProt Q8N0Z6) | 0.954 ± 0.084
NDUFAF2 (UniProt Q8N183) | 1.02 ± 0.056
UniProt Q8TEX9 and related entries | 0.956 ± 0.034
DCUN1D3 (UniProt Q8IWE4) | 1.01 ± 0.14
UniProt Q8NHU6 and related entries | 1.1 ± 0.025
UniProt Q8IXI2 and related entries | 0.953 ± 0.072
FTSJ3 (UniProt Q8IY81) | 1.05 ± 0.02

Target | NP40-soluble protein abundance
PNPT1 (UniProt Q8TCS8) | 1 ± 0.024
ZADH2 (UniProt Q8N4Q0) | 0.951 ± 0.02
UniProt Q86YP4 and related entries | 1.09 ± 0.023
NUP43 (UniProt Q8NFH3) | 0.954 ± 0.03
RAB43 (UniProt Q86YS6) | 0.893 ± 0.047
UniProt Q8IUX7 | 1.16 ± 0.21
INTS1 (UniProt Q8N201) | 1.18 ± 0.24
CISD2 (UniProt Q8N5K1) | 0.973 ± 0.089
RYBP (UniProt Q8N488) | 0.929 ± 0.11
UniProt Q8N3X1 and related entries | 1.09 ± 0.022
UniProt Q8NBN3 and related entries | 0.951 ± 0.098
ARL6IP6 (UniProt Q8N6S5) | 1.05 ± 0.077
UniProt Q8IY63 and related entries | 1.03 ± 0.049
ANKRD13A (UniProt Q8IZ07) | 0.968 ± 0.077
UniProt Q8NHV4 and related entries | 1.01 ± 0.046
UniProt Q8IY95 and related entries | 0.974 ± 0.056
UniProt Q8IWV8 and related entries | 1.06 ± 0.12
UniProt Q8NCW5 | 0.991 ± 0.083
